{"source": "PubChem BioAssay AID1224826, NIAID, 2016", "aim": "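Regulators of Tlr4 signalling leading to Tnf-alpha expression in macrophages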 (primary screen)", "cell system": "RAW264.7 G9 macrophages from mouse bearing reporters for p65 (GFP) and the Tnf promoter (mCherry)", "reagent": "siRNA pool against mouse genes, 100 nM", "duration": "16 h of LPS stimulation, after 2 days of siRNA transfection", "conditions": "bacterial lipopolysaccharide (Salmonella minnesota R595), 10 ng/ml", "measured": "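Imaged Tnf reporter mCherry in nuclei, minus background, normalised per plate to the median and expressed as robust z-scores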", "scale": "Tnf reporter robust z-score: higher = stronger Tnf promoter reporter signal after LPS", "rule for the call": "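Called active when robust z-score is at most -1.3, matching the median of the Tlr4 knock-down control, or over 3; control wells and wells with under 50 cells never active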", "calls": "active = Tnf reporter clearly lowered or raised; inactive = no clear change in Tnf reporter", "note": "The whole screen tested about 17,000 reagents; shown is a part drawn at random. Of all reagents, about 1,110 (6.6%) got an active call. 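Active means lowered or raised reporter signal; replicate intensities are raw and not normalised per plate.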 Not all columns of the deposit are shown."}
{"gene knocked down": "Dennd6a (DENN domain containing 6A)", "Tnf reporter robust z-score": 0.3, "fewer than 50 cells in well": "enough cells in well", "outcome": "inactive"}
{"gene knocked down": "Med24 (mediator complex subunit 24)", "Tnf reporter robust z-score": 0.03, "fewer than 50 cells in well": "enough cells in well", "outcome": "inactive"}
{"gene knocked down": "P2rx7 (purinergic receptor P2X, ligand-gated ion channel, 7)", "Tnf reporter robust z-score": -0.31, "fewer than 50 cells in well": "enough cells in well", "outcome": "inactive"}
{"gene knocked down": "Tjp2 (tight junction protein 2)", "Tnf reporter robust z-score": 1.86, "fewer than 50 cells in well": "enough cells in well", "outcome": "inactive"}
{"gene knocked down": "Por (cytochrome p450 oxidoreductase)", "Tnf reporter robust z-score": -0.81, "fewer than 50 cells in well": "enough cells in well", "outcome": "inactive"}
{"gene knocked down": "Nudt16l2 (nudix hydrolase 16 like 2)", "fewer than 50 cells in well": "fewer than 50 cells per well; well left out of calls", "outcome": "inactive"}
{"gene knocked down": "Pgap4 (post-GPI attachment to proteins GalNAc transferase 4)", "Tnf reporter robust z-score": 0.51, "fewer than 50 cells in well": "enough cells in well", "outcome": "inactive"}
{"gene knocked down": "G3bp1 (G3BP stress granule assembly factor 1)", "Tnf reporter robust z-score": -0.83, "fewer than 50 cells in well": "enough cells in well", "outcome": "inactive"}
{"gene knocked down": "C1d (C1D nuclear receptor co-repressor)", "Tnf reporter robust z-score": -0.58, "fewer than 50 cells in well": "enough cells in well", "outcome": "inactive"}
{"gene knocked down": "Etfbkmt", "Tnf reporter robust z-score": -0.65, "fewer than 50 cells in well": "enough cells in well", "outcome": "inactive"}
{"gene knocked down": "Shroom3 (shroom family member 3)", "Tnf reporter robust z-score": -0.78, "fewer than 50 cells in well": "enough cells in well", "outcome": "inactive"}
{"gene knocked down": "R3hdm2 (R3H domain containing 2)", "Tnf reporter robust z-score": 1.4, "fewer than 50 cells in well": "enough cells in well", "outcome": "inactive"}
{"gene knocked down": "Guca1b (guanylate cyclase activator 1B)", "Tnf reporter robust z-score": 2.05, "fewer than 50 cells in well": "enough cells in well", "outcome": "inactive"}
{"gene knocked down": "Scube1 (signal peptide, CUB domain, EGF-like 1)", "Tnf reporter robust z-score": -0.97, "fewer than 50 cells in well": "enough cells in well", "outcome": "inactive"}
{"gene knocked down": "Dhrs3 (dehydrogenase/reductase 3)", "Tnf reporter robust z-score": 0.44, "fewer than 50 cells in well": "enough cells in well", "outcome": "inactive"}
{"gene knocked down": "H2az1 (H2A.Z variant histone 1)", "Tnf reporter robust z-score": -1.01, "fewer than 50 cells in well": "enough cells in well", "outcome": "inactive"}
{"gene knocked down": "Tbcd (tubulin-specific chaperone d)", "Tnf reporter robust z-score": -0.28, "fewer than 50 cells in well": "enough cells in well", "outcome": "inactive"}
{"gene knocked down": "Vmn1r56 (vomeronasal 1 receptor 56)", "Tnf reporter robust z-score": 0.84, "fewer than 50 cells in well": "enough cells in well", "outcome": "inactive"}
{"gene knocked down": "Sfxn5 (sideroflexin 5)", "Tnf reporter robust z-score": -2.19, "fewer than 50 cells in well": "enough cells in well", "outcome": "active"}
{"gene knocked down": "Siah2 (siah E3 ubiquitin protein ligase 2)", "Tnf reporter robust z-score": -0.01, "fewer than 50 cells in well": "enough cells in well", "outcome": "inactive"}
{"gene knocked down": "Lrtm1 (leucine-rich repeats and transmembrane domains 1)", "Tnf reporter robust z-score": -0.7, "fewer than 50 cells in well": "enough cells in well", "outcome": "inactive"}

Active calls, of those listed so far:
{"gene knocked down": "Sfxn5 (sideroflexin 5)", "Tnf reporter robust z-score": -2.19, "fewer than 50 cells in well": "enough cells in well", "outcome": "active"}
